Measured data: PubChem BioAssay AID1224830 (NIAID, 2016)
Purpose: 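Genes whose knock-down alters the TNF-alpha reporter response to LPS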 (primary screen). Cells: human THP-1 monocytic leukaemia cells, TNF dual-luciferase reporter clone, PMA-differentiated to macrophage-like cells. Knock-down reagent: siRNA pool against human genes, 50 nM. Timing: LPS for 4 h, given about 3 days after siRNA transfection. Conditions: bacterial LPS (TLR4 ligand), 10 ng/ml. Measurement: 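TNF firefly reporter luminescence divided by renilla, normalised to the plate median, then turned into a robust z-score for each replicate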. Direction: TNF reporter robust z-score: higher = stronger TNF reporter response to LPS. Rule for the call: 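a well is active when its z-score exceeds 2.8 or falls below -1.5; control wells carry no call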.
The whole screen tested about 18,000 reagents; this is a random part of them. About 2,900 of them (16%) were called active. 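Calls are made per well; low scores hint the gene aids the LPS response, high scores that it dampens it.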 Entries without a mark were called inactive. Repeated entries: four replicate wells of each siRNA pool.

target gene | TNF reporter robust z-score
TARP (TCR gamma alternate reading frame protein) | -0.74
TARP (TCR gamma alternate reading frame protein) | -0.79
TARP (TCR gamma alternate reading frame protein) | -0.89
TARP (TCR gamma alternate reading frame protein) | 0.36
OR4K5 (olfactory receptor family 4 subfamily K member 5) | 0.47
OR4K5 (olfactory receptor family 4 subfamily K member 5) | -0.48
OR4K5 (olfactory receptor family 4 subfamily K member 5) | 0.88
OR4K5 (olfactory receptor family 4 subfamily K member 5) | 0.78
KHDRBS1 | 1.28
KHDRBS1 | 2.61
KHDRBS1 | 2.53
KHDRBS1 | 0.76
S100PBP (S100P binding protein) | -1.24
S100PBP (S100P binding protein) | -0.7
S100PBP (S100P binding protein) | -1.28
S100PBP (S100P binding protein) | -0.52
FANCF (FA complementation group F) | -0.16
FANCF (FA complementation group F) | 0.44
FANCF (FA complementation group F) | 0.22
FANCF (FA complementation group F) | 1.12
CELF2 (CUGBP Elav-like family member 2) | 0.59
CELF2 (CUGBP Elav-like family member 2) | 2.49
CELF2 (CUGBP Elav-like family member 2) | 1.81
CELF2 (CUGBP Elav-like family member 2) | 1.32
NSF (N-ethylmaleimide sensitive factor, vesicle fusing ATPase) | -0.74
NSF (N-ethylmaleimide sensitive factor, vesicle fusing ATPase) | -0.03
NSF (N-ethylmaleimide sensitive factor, vesicle fusing ATPase) | -0.23
NSF (N-ethylmaleimide sensitive factor, vesicle fusing ATPase) | 0.13
AVIL (advillin) | 0.06
AVIL (advillin) | 0.65
AVIL (advillin) | 0.01
AVIL (advillin) | 0.52
PXT1 (peroxisomal testis enriched protein 1) | 0.02
PXT1 (peroxisomal testis enriched protein 1) | 0.24
PXT1 (peroxisomal testis enriched protein 1) | -0.34
PXT1 (peroxisomal testis enriched protein 1) | 0.87
C12orf60 (chromosome 12 open reading frame 60) | -0.15
C12orf60 (chromosome 12 open reading frame 60) | -0.54
C12orf60 (chromosome 12 open reading frame 60) | -0.39
C12orf60 (chromosome 12 open reading frame 60) | -0.06
EIF4E3 (eukaryotic translation initiation factor 4E family member 3) | -1.5
EIF4E3 (eukaryotic translation initiation factor 4E family member 3) | -0.72
EIF4E3 (eukaryotic translation initiation factor 4E family member 3) | -1.39
EIF4E3 (eukaryotic translation initiation factor 4E family member 3) | -0.09
ZBTB5 (zinc finger and BTB domain containing 5) | -0.86
ZBTB5 (zinc finger and BTB domain containing 5) | -0.11
ZBTB5 (zinc finger and BTB domain containing 5) | -1.04
ZBTB5 (zinc finger and BTB domain containing 5) | -1.03

Reformatted: 4 of the entries above.
| target gene | TNF reporter robust z-score |
| --- | --- |
| C12orf60 (chromosome 12 open reading frame 60) | -0.06 |
| EIF4E3 (eukaryotic translation initiation factor 4E family member 3) | -1.5 |
| EIF4E3 (eukaryotic translation initiation factor 4E family member 3) | -0.72 |
| EIF4E3 (eukaryotic translation initiation factor 4E family member 3) | -1.39 |
